Legend:
TM4 mouse Sertoli cells = assay: Cell growth and viability (MTT), dose-response of the drugs alone; type: cell-based; details: 48 h of exposure, drug alone, 50% fraction of cells affected (Fa), non-linear fitting
Protocol: Cells were maintained in standard conditions for 24 h before treatments. […] All azoles were dissolved in DMSO. In an effort to avoid a possible experimental artifact with vehicles, experiments were performed including control groups in which the effect of the drug vehicle alone was tested (vehicle control, vCTR). […] For experiments with N-acetylcysteine (NAC), 24 h after seeding cells were pre-treated for 1 h with the ROS inhibitor (1 mM) and then maintained in co-treatment with azoles for 48 h.
TM4 cells were seeded at a density of 1 × 10^4/cm^2, and cultures incubated at standard conditions in the presence or the absence of azoles to reach final concentrations ranging from 0.078 µM up to 320 µM in culture medium. Cell growth and viability were assessed at 24 and 48 h by Trypan-blue exclusion assay and MTT (3-(4,5-dimethylthiazol-2-yl)-2,5-diphenyl-2H-tetrazolium-bromide) colorimetric method (Sigma-Aldrich, St. Louis, MO, USA), quantifying the metabolic efficiency of living cells.
The Interaction Index (II) was calculated, as previously described, by modifying the Chou and Talalay equation [78]. Specifically, Chou and Talalay’s median-effect method estimates the IC50 and the sigmodicity coefficient m values using linear regression of the linearised dose-response curve. […]

[1] = system: antioxidant enzymes in TM4 cells; assay: Antioxidant enzymatic activity assays (SOD, CAT, GPx, GR, GST); type: cell-based, mouse; details: 3 h of exposure, vCTR = 0.46 ± 0.067
Protocol: The antioxidant enzymatic activities were performed spectrophotometrically, as previously described. Briefly, after 3 h of incubation with azoles, cells were washed in ice-cold PBS, resuspended in buffer containing 50 mM Tris–HCl (pH 7.4), 1% (v/v) Triton X-100, 1 mM EDTA, and then disrupted by three freeze-thawing cycles. After centrifugation (17,000 g, 10 min, 4 °C), the supernatants were collected for protein quantification and subsequently analysed.
The glutathione reductase (GR) activity was evaluated spectrophotometrically by measuring NADPH oxidation (340 nm at 25 °C). […]
Total glutathione peroxidase (GPx) activity (se-dependent and se-independent) of each cell extract was assayed spectrophotometrically by following the NADPH oxidation (340 nm). […] The glutathione transferase (GST) activity was evaluated by determining the GSH conjugation rate to 1-chloro-2,4- dinitrobenzene at 340 nm. The reaction mixture was prepared with 0.1 M potassium phosphate buffer (pH 6.5), 2 mM GSH, 1 mM 1-chloro-2,4-dinitrobenzene, and a determined amount of the supernatants.
The catalase (CAT) activity was evaluated, by monitoring at 240 nm its 10-millimolar decomposition. […]
The superoxide dismutase (SOD) activity was determined using a colourimetric activity assay (ThermoFisher Scientific—Life Technologies Corp, Carlsband, CA, USA). […]

Structure (SMILES): Clc1ccc(COC(Cn2ccnc2)c2ccc(Cl)cc2Cl)c(Cl)c1 (stereo not drawn) [MCZ, miconazole]
- IC50 (TM4 mouse Sertoli cells): 34.4 ± 2.5 µM
- IC50 (TM4 mouse Sertoli cells; Mus musculus, TM4, 48 h): ~34 µM
- SOD/(GPx + CAT) ratio [1]: 0.142 ± 0.015

Reference: publication PMC9140920 (International Journal of Molecular Sciences, 2022)
